Measurements published in patent US11891422B2 (priority 2018, dated 2024).
For part of these data: Part of at least one peptide drawing is inferred or uncertain, most often the ends. For part of these data: At least one compound was matched to its structure with a doubt left.

Chains of the proteins cited; added tags and fusions are not shown. Residues count along the entry.
UniProt F5HEZ4, whole entry: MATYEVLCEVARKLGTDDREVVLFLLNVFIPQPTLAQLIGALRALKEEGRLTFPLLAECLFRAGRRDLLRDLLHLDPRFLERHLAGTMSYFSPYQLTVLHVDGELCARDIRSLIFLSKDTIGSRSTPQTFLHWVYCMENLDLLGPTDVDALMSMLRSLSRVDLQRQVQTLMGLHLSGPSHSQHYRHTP
UniProt F5HEZ4, 1-178: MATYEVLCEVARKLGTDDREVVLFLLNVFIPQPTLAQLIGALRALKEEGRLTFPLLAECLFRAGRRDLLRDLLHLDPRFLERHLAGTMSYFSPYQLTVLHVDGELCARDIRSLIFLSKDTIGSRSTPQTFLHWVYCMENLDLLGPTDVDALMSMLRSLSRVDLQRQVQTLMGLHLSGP

Tests used:
[1] = test system: BC-3 PEL cell line; experiment: CellTiter-Glo cell viability assay, BC-3
Description: Media was supplemented with 20% FBS 3 hours post-peptide treatment.
Cytotoxicity of these hits was assayed using CellTiter Glo viability assay.

[2] = test system: BC-1 PEL cell line; experiment: CellTiter-Glo cell viability assay, BC-1; assay type: cell-based; details: t=48 h and t=72 h post-treatment
[3] = test system: BCBL-1 PEL cell line; experiment: CellTiter-Glo cell viability assay, BCBL-1; assay type: cell-based; details: as early as t=24 h
[4] = test system: PEL cell lines (BC-1, BC-3, BCBL-1); experiment: CellTiter-Glo cytotoxicity in panel of PEL cell lines; assay type: cell-based; details: FIG. 5A
[5] = test system: NF-κB transcriptional activity in BC-3 NF-κB-luc PEL cells; experiment: NF-κB luciferase reporter assay; assay type: cell-based; details: t=5 h and t=24 h post-treatment, increasing doses
[6] = biological target: T1, vFLIP/NEMO complex in vFLIP-FLAG doxycycline-inducible Namalwa cell line (Human herpesvirus 8 type P, UniProt F5HEZ4); experiment: Co-immunoprecipitation of vFLIP-FLAG and NEMO; assay type: cell-based; details: 24 hrs treatment, increasing concentrations
T1 construct: expressed in transfected cells; host or cells: Namalwa Burkitt lymphoma cells, lentivirally transduced (pLVX-TetOne-puro), doxycycline-induced
Description: Co-Immunoprecipiation: FLAG-tagged WT vFLIP or a vFLIP NF-κB dead mutant (vFLIP^AAA(58-60)) inducible Namalwa Burkitt lymphoma cell lines were used. Expression of WT vFLIP or mutant vFLIP was attained by treating cells with 1 μg/mL doxcycline for 24 hrs. […] 4 hours post-treatment, media was supplemented with 20% FBS and treatment continued for another 24 hrs. Next day, uninduced Namalwa WT vFLIP cell line, treated Namalwa WT vFLIP expressing cell lines as well as Namalwa expressing mutant vFLIP and parental Namalwa cell lines were harvested, washed in PBS and lysed on ice for 30 minutes using CelLytic M lysis reagent (Sigma, cat. C2978) supplemented with protease inhibitor cocktail (calbiochem, cat 539134). Cells were spun down and some of supernatants was saved for input and the rest was immunoprecipitated overnight using anti-FLAG M2beads (Sigma, cat. A2220) that were pre-equilibrated with the same buffer. […]
Immunoblotting: For co-immunoprecipitation study, eluted protein lysates were separated using pre-casted 10% sodium dodecyl sulfate-polyacrylamide gel electrophoresis SDS-PAGE gel (Bio-rad). […] Secondary anti-HRP rabbit antibody was used at 1:5000 dilution (GE healthcare) and chemiluminescent signal was detected using enhanced chemiluminescence (ECL) substrate (thermo Fisher Scientific) and autoradiography. […]

[7] = biological target: T2, vFLIP in BC1 PEL cells (Human herpesvirus 8 type P, UniProt F5HEZ4); experiment: Western blot of vFLIP levels; assay type: cell-based; details: 50 μM dose
T2 construct: endogenous in cells; host or cells: BC-1 primary effusion lymphoma cells (KSHV+/EBV+)

[8] = test system: BC-1 PEL cell line; experiment: Annexin V/DAPI flow cytometry, BC-1; assay type: cell-based
[9] = test system: Namalwa cells; experiment: Annexin V/DAPI flow cytometry, Namalwa; assay type: cell-based; details: t=24 h or t=48 h
[10] = Analytical size exclusion chromatography; assay type: physicochemical; details: 2×PBS pH 7.4 10% acetonitrile
[11] = test system: BC-3-luc PEL cells xenograft; experiment: PEL in vivo xenograft mouse model; design: species or system NOD/SCID mice; details: 20 mg/kg intraperitoneally, 9 consecutive days
Description: PEL in Vivo Xenograft Mouse Model Study: […] BC3NFRen-luc #3 were injected intraperitoneally into 4-6 week-old male NOD/SCID mice. […] The tumor burden or bioluminescence (photons/s/cm^2/steradian) was monitored by live imaging and weighing, with the sacrificial endpoint determined to be a net gain or loss of 10% body weight over a week.
We next tested its antitumor activity in vivo. We injected 10×10^6 BC-3-luc PEL cells into the peritoneal cavity of NOD-SCID mice and monitored tumor burden by bioluminescence imaging.

[12] = biological target: T3, MBP-vFLIP (Human herpesvirus 8 type P, UniProt F5HEZ4); experiment: Fluorescence polarization direct binding assay; details: read-out: Kd for vFLIP; FITC-labeled peptide 100 nM, 25° C.
T3 construct: pET28a his-MBP vFlip (1-178) were transformed into BL21(DE3) cells; His (N); made in house; host or cells: E. coli BL21(DE3)

| SMILES | cellular viability of BC-3 cells ([1]; as early as t=24 h) | IC50 ([1]; read-out: 1C50, CellTiter-Glo, FIG. 5A) [µM] | killing of BC-1 cell line [2] | cellular viability of BCBL-1 cells [3] | sensitivity of PEL cell lines [4] | NF-κB transcriptional activity [5] | disruption of vFLIP/NEMO complex (NEMO pulled down by FLAG beads) [6] | vFLIP protein levels [7] | early apoptotic cells (Annexin V positive) ([8]; 25 μM, t=24 h, compared to DMSO) | late apoptosis (Annexin V/DAPI double positive and single DAPI positive cells) ([8]; 50 μM) | apoptosis in Namalwa cells [9] | aggregation in aqueous buffers [10] | tumor growth (bioluminescence) ([11]; day 20) | survival (Kaplan-Meier) ([11]; vs control group) | Kd [12] [µM] |
| --- | --- | --- | --- | --- | --- | --- | --- | --- | --- | --- | --- | --- | --- | --- | --- |
| CC[C@H](C)[C@H](NC(=O)[C@H](CC(C)C)NC(=O)[C@H](CCC(=O)O)NC(=O)[C@H](CC(=O)O)NC(=O)[C@@H](NC(=O)[C@H](CCCCn1cc(COCc2cn(CCCC[C@H](NC(=O)[C@H](CC(C)C)NC(=O)[C@H](CCCNC(=N)N)NC(=O)[C@H](CCCNC(=N)N)NC(=O)[C@@H](NC(=O)[C@H](CCC(=O)NC3CCCCC3)NC(=O)[C@H](CCC(=O)O)NC(=O)[C@H](Cc3c[nH]c4ccccc34)NC(=O)[C@H](CC(C)C)NC(=O)[C@H](CCC(N)=O)NC(=O)[C@H](CCCNC(=N)N)NC(=O)[C@@H](NC(=O)[C@H](Cc3c[nH]c4ccccc34)NC(=O)[C@H](CCC(=O)O)NC(C)=O)[C@@H](C)CC)[C@@H](C)CC)C(N)=O)nn2)nn1)NC(=O)[C@H](CCCNC(=N)N)NC(=O)[C@H](Cc1ccccc1)NC(=O)[C@H](CC(C)C)NC(=O)[C@H](CCCNC(=N)N)NC(=O)[C@H](Cc1c[nH]cn1)NC(=O)[C@@H](NC(=O)[C@H](CCC(=O)O)NC(C)=O)[C@@H](C)CC)[C@@H](C)CC)C(=O)N[C@@H](CCCNC(=N)N)C(N)=O [CHD3^NEMO] | significantly decreased the cellular viability | 5.8 | Significant killing | significantly decreased the cellular viability | sensitive | significantly inhibited NF-κB transcriptional activity in a dose-dependent manner | dose-dependent disruption of the vFLIP/NEMO complex | vFLIP protein levels decrease | significant increase in early apoptotic cells | significant increase in Annexin V/DAPI double positive and single DAPI positive cells | did not detect any apoptosis | does not aggregate in aqueous buffers | remarkable delay in tumor growth | significant survival advantage | – |
| CC[C@H](C)[C@H](NC(=O)[C@H](CC(C)C)NC(=O)[C@H](CCC(=O)O)NC(=O)[C@H](CC(=O)O)NC(=O)[C@@H](NC(=O)[C@H](CCCCn1cc(COCc2cn(CCCC[C@H](NC(=O)[C@H](CC(C)C)NC(=O)[C@H](CCCNC(=N)N)NC(=O)[C@H](CCCNC(=N)N)NC(=O)[C@@H](NC(=O)[C@H](CCC(=O)NC3CCCCC3)NC(=O)[C@H](CCC(=O)O)NC(=O)[C@H](Cc3c[nH]c4ccccc34)NC(=O)[C@H](CC(C)C)NC(=O)[C@H](CCC(N)=O)NC(=O)[C@H](CCCNC(=N)N)NC(=O)[C@@H](NC(=O)[C@H](Cc3c[nH]c4ccccc34)NC(=O)[C@H](CCC(=O)O)NC(=O)CCNC(=S)Nc3ccc4c(c3)C(=O)OC43c4ccc(O)cc4Oc4cc(O)ccc43)[C@@H](C)CC)[C@@H](C)CC)C(N)=O)nn2)nn1)NC(=O)[C@H](CCCNC(=N)N)NC(=O)[C@H](Cc1ccccc1)NC(=O)[C@H](CC(C)C)NC(=O)[C@H](CCCNC(=N)N)NC(=O)[C@H](Cc1c[nH]cn1)NC(=O)[C@@H](NC(=O)[C@H](CCC(=O)O)NC(C)=O)[C@@H](C)CC)[C@@H](C)CC)C(=O)N[C@@H](CCCNC(=N)N)C(N)=O [FITC-CHD3^NEMO] | – | – | – | – | – | – | – | – | – | – | – | – | – | – | 0.24 ± 0.07 |
